PubChem BioAssay AID1259282, Sanger Institute – 2017
Here is a random part of 794 reagents. 11 of them (1.4%) count as active. 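Calls flag knock-downs that lower viability without drug; drug synergy appears only in the synergy scores; exposure time not stated.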 Viability is capped at 1. No sequences are given here. The record does not give: the amount of reagent, the time to read-out.

Assay: 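Kinase knock-downs that work with targeted colorectal cancer drugs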 (primary screen)
Cell system: DIFI human colorectal cancer cell line
Reagent: siRNA pool against human genes
Treatment: anchor drug at a mild dose (BYL719 1 µM, cetuximab 5 µg/ml, trametinib 10 nM) or DMSO vehicle; exposure time not given
Read-out: 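Viability relative to non-targeting pool wells, replicate mean, in DMSO or low-dose BYL719, cetuximab or trametinib; robust z-score without drug; synergy score per drug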
Reading the numbers: robust z-score, knock-down alone: higher = more viable cells than typical knock-down; viability, knock-down alone: higher = more viable cells; synergy score with trametinib and synergy score with cetuximab and synergy score with BYL719: higher = stronger combined killing with drug
Call rule: 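Essential when the robust z-score of the knock-down without drug falls below -3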
Calls: active = essential (knock-down alone, z below -3); inactive = not essential

no.	gene	robust z-score, knock-down alone	viability, knock-down alone (fraction of control)	synergy score with trametinib	synergy score with cetuximab	synergy score with BYL719	Outcome
1	PSTK (phosphoseryl-tRNA kinase)	0.715	1	0.0337	-0.0439	-0.196	inactive
2	CDK15 (cyclin dependent kinase 15)	0.404	0.955	-0.0888	-0.0535	-0.15	inactive
3	SMG1	0.715	1	0.0801	0.0969	0.132	inactive
4	EPHA4 (EPH receptor A4)	-1.03	0.746	-0.0716	-0.206	-0.105	inactive
5	PRKCB (protein kinase C beta)	0.12	0.914	0.13	0.0946	0.0419	inactive
6	XYLB (xylulokinase)	0.715	1	-0.0359	-0.0843	-0.164	inactive
7	PRKAG2 (protein kinase AMP-activated non-catalytic subunit gamma 2)	0.715	1	-0.191	0.0116	-0.087	inactive
8	NUP107 (nucleoporin 107)	0.195	0.925	0.0915	0.0479	-0.137	inactive
9	WNK1 (WNK lysine deficient protein kinase 1)	0.715	1	0.0108	-0.0138	-0.0978	inactive
10	NADK (NAD kinase)	0.715	1	-0.0974	0.0744	0.0077	inactive
11	SKAP1 (src kinase associated phosphoprotein 1)	0.715	1	0.0237	-0.0777	-0.121	inactive
12	PRAG1 (PEAK1 related, kinase-activating pseudokinase 1)	-1.98	0.608	0.137	0.0785	0.0116	inactive
13	NEK1 (NIMA related kinase 1)	0.715	1	0.161	0.0781	-0.2	inactive
14	PIK3CB	0.263	0.934	-0.0314	-0.0438	0.119	inactive
15	TYK2 (tyrosine kinase 2)	0.715	1	-0.0236	-0.0398	-0.0633	inactive
16	PRKY (protein kinase Y-linked (pseudogene))	-0.161	0.873	0.0936	0.0633	-0.183	inactive
17	MPP2 (MAGUK p55 scaffold protein 2)	-0.977	0.754	0.146	-0.0115	0.0234	inactive
18	EPHA3 (EPH receptor A3)	-1.97	0.61	0.124	0.0231	-0.0509	inactive
19	SRPK3 (SRSF protein kinase 3)	0.534	0.974	0.172	0.0224	-0.113	inactive
20	CDK16 (cyclin dependent kinase 16)	-2.28	0.565	0.139	0.121	0.0577	inactive
21	ABL2 (ABL proto-oncogene 2, non-receptor tyrosine kinase)	0.715	1	0.157	-0.02	0.116	inactive
22	MAP3K11 (mitogen-activated protein kinase kinase kinase 11)	-0.672	0.799	0.117	-0.0367	0.0296	inactive
23	PRKCQ (protein kinase C theta)	-0.196	0.868	0.131	0.106	-0.131	inactive
24	PKIA (cAMP-dependent protein kinase inhibitor alpha)	0.715	1	0.145	-0.00602	0.0346	inactive
25	MARK1 (microtubule affinity regulating kinase 1)	-1.28	0.71	-0.00816	0.0872	0.0125	inactive
26	TTBK2 (tau tubulin kinase 2)	-0.202	0.867	0.133	-0.0197	-0.252	inactive
27	DDR2 (discoidin domain receptor tyrosine kinase 2)	0.715	1	-0.104	0.0528	-0.354	inactive
28	MAST3 (microtubule associated serine/threonine kinase 3)	0.462	0.963	0.136	0.105	-0.0269	inactive
29	TNNI3K (TNNI3 interacting kinase)	0.715	1	-0.149	-0.0442	-0.336	inactive
30	HK1 (hexokinase 1)	0.715	1	-0.192	-0.075	-0.104	inactive
31	IKBKG	0.715	1	0.0277	0.0436	-0.0554	inactive
32	FN3K (fructosamine 3 kinase)	0.535	0.974	0.146	0.164	0.024	inactive
33	PRKD1 (protein kinase D1)	0.715	1	0.161	0.0947	0.0206	inactive
34	TP53 (tumor protein p53)	-0.647	0.802	0.231	0.167	0.0112	inactive
35	CKB (creatine kinase B)	0.715	1	-0.111	-0.0456	-0.362	inactive
36	AKT1 (AKT serine/threonine kinase 1)	-0.224	0.864	0.114	0.0545	-0.138	inactive
37	PPP2R1A (protein phosphatase 2 scaffold subunit Aalpha)	0.715	1	-0.0935	-0.124	-0.362	inactive
38	PDK4 (pyruvate dehydrogenase kinase 4)	0.715	1	0.0676	0.0073	0.123	inactive
39	CAMK2G (calcium/calmodulin dependent protein kinase II gamma)	0.111	0.912	-0.0296	0.00407	-0.0405	inactive
40	GRK1 (G protein-coupled receptor kinase 1)	0.643	0.99	-0.0161	-0.0802	-0.0562	inactive
41	HIPK4 (homeodomain interacting protein kinase 4)	0.715	1	-0.218	0.0244	-0.23	inactive
42	TAF1 (TATA-box binding protein associated factor 1)	0.426	0.958	-0.0251	-0.137	-0.158	inactive
43	CAMK2B (calcium/calmodulin dependent protein kinase II beta)	-0.649	0.802	0.084	0.0808	-0.0648	inactive
44	PIK3R3 (phosphoinositide-3-kinase regulatory subunit 3)	0.715	1	-0.0158	0.0153	-0.0579	inactive
45	PRKACG (protein kinase cAMP-activated catalytic subunit gamma)	-0.11	0.88	0.249	0.134	-0.0412	inactive
46	EPHA5 (EPH receptor A5)	0.715	1	-0.141	-0.0178	-0.247	inactive
47	WNK3 (WNK lysine deficient protein kinase 3)	-0.0647	0.887	0.0616	-0.0541	-0.314	inactive
48	MASTL (microtubule associated serine/threonine kinase like)	0.262	0.934	0.0244	-0.0833	-0.079	inactive
49	OBSCN	0.715	1	-0.0272	-0.203	-0.362	inactive
50	CKS2 (CDC28 protein kinase regulatory subunit 2)	0.715	1	-0.0754	-0.047	-0.276	inactive

5 of these entries in another layout:
gene	robust z-score, knock-down alone	viability, knock-down alone (fraction of control)	synergy score with trametinib	synergy score with cetuximab	synergy score with BYL719	Outcome
XYLB (xylulokinase)	0.715	1	-0.0359	-0.0843	-0.164	inactive
PRKAG2 (protein kinase AMP-activated non-catalytic subunit gamma 2)	0.715	1	-0.191	0.0116	-0.087	inactive
NUP107 (nucleoporin 107)	0.195	0.925	0.0915	0.0479	-0.137	inactive
WNK1 (WNK lysine deficient protein kinase 1)	0.715	1	0.0108	-0.0138	-0.0978	inactive
NADK (NAD kinase)	0.715	1	-0.0974	0.0744	0.0077	inactive
